Patent publication US7153815B2, “Insecticide containing hydrazone derivative as the active ingredient and novel hydrazone derivative” (Nihon Nohyaku Co., Ltd., priority 2002, dated 2006)
Some of these results come from one statement about several compounds together.

System: larvae of smaller tea tortrix (Adoxophyes fasciata)
Assay: Insecticidal effect against larvae of smaller tea tortrix (artificial feed immersion)
Type: in vivo
Settings: compound concentration of 500 ppm; wettable powder, artificial feed immersed 10 seconds; third stage larvae; four days after inoculation; 25° C.; suffering larva = 0.5 dead

Row | Structure (SMILES) | mortality (%)
1 | CCC(=NNc1ccc(C(F)(F)F)cc1)C(=O)NCc1ccc(Cl)cc1 [compound 145] | 100
2 | CCC(=NNc1ccc(C(F)(F)F)cc1)C(=O)NCc1ccc(Cl)nc1 [compound 146] | 100
3 | CC/C(=N\Nc1ccc(C(F)(F)F)cc1)C(=O)NCc1ccc(C(F)(F)F)cc1 [compound 147] | 100
4 | CCC/C(=N\Nc1ccc(Cl)cc1)C(=O)NCc1ccc(Cl)cc1 [compound 152] | 100
5 | CCC/C(=N\Nc1ccc(C(F)(F)F)cc1)C(=O)NCc1ccc(Cl)nc1 [compound 153] | 100
6 | CCC/C(=N\Nc1ccc(Cl)cc1)C(=O)NCc1ccc(C)cc1 [compound 155] | 100
7 | CC(C)/C(=N\Nc1ccc(Cl)cc1)C(=O)NCc1ccc(Cl)cc1 [compound 157] | 100
8 | CC(C)/C(=N/Nc1ccc(Cl)cc1)C(=O)NCc1ccc(C(F)(F)F)cc1 [compound 159] | 100
9 | CC(C)/C(=N\Nc1ccc(Cl)cc1)C(=O)NCc1ccc(C(F)(F)F)cc1 [compound 160] | 100
10 | CC(C)/C(=N/Nc1ccc(C(F)(F)F)cc1)C(=O)NCc1ccc(Cl)nc1 [compound 162] | 100
11 | CSCC(=NNc1ccc(C(F)(F)F)cc1)C(=O)NCc1ccc(Cl)nc1 [compound 171] | 100
12 | N#CC(=NNc1ccc(Br)cc1)C(=O)NCc1ccc(Cl)cc1 [compound 178] | 100
13 | N#CC(=NNc1ccc(C(F)(F)F)cc1)C(=O)NCc1ccc(Cl)cc1 [compound 182] | 100
14 | CN(C)/C(=N/Nc1ccc(C(F)(F)F)cc1)C(=O)NCc1ccc(Cl)nc1 [compound 192] | 100
15 | CC(=NNc1ccc(Cl)nc1)C(=O)NCc1ccc(Cl)cc1 [compound 194] | 100
16 | CC(=NNc1ccc(Cl)nc1)C(=O)NCc1ccc(Cl)nc1 [compound 195] | 100
17 | CC(=NNc1ccc(C(F)(F)F)cn1)C(=O)NCc1ccc(Cl)cc1 [compound 196] | 100
18 | CC(=NNc1ccc(C(F)(F)F)cn1)C(=O)NCc1ccc(Cl)nc1 [compound 197] | 100
19 | O=C(C=NNc1ccc(C(F)(F)F)cc1)NCc1ccc(Cl)c(Cl)c1 [compound 227] | 100
20 | O=C(C=NNc1ccc(C(F)(F)F)cc1)NCc1ccc(Cl)cc1 [compound 230] | 100
21 | CC(=NNc1ccc(Cl)cc1)C(=O)NCc1cc(F)c(F)c(F)c1 [compound 235] | 100
22 | CC(=NNc1ccc(C(F)(F)F)cc1)C(=O)NCc1cc(F)c(F)c(F)c1 [compound 236] | 100
23 | CC(=NNc1ccc(C(F)(F)F)cc1)C(=O)NCc1ccc(Cl)c(F)c1 [compound 237] | 100

Row | Structure (SMILES) | mortality (%)
24 | CC(=NNc1ccc(C(F)(F)F)cc1)C(=O)NCc1ccc(F)c(Cl)c1 [compound 238] | 100
25 | CC(=NNc1ccc(F)c(F)c1)C(=O)NCc1ccc(Cl)cc1 [compound 240] | 100
26 | CC(=NNc1ccc(F)c(F)c1)C(=O)NCc1ccc(Cl)nc1 [compound 241] | 100
27 | CC(=NNc1ccc(F)c(Cl)c1)C(=O)NCc1ccc(Cl)cc1 [compound 242] | 100
28 | CC(=NNc1ccc(F)c(Cl)c1)C(=O)NCc1ccc(Cl)nc1 [compound 243] | 100
29 | CC(=NNc1cc(F)cc(C(F)(F)F)c1)C(=O)NCc1ccc(Cl)cc1 [compound 247] | 100
30 | CC(=NNc1cc(F)cc(C(F)(F)F)c1)C(=O)NCc1ccc(Cl)nc1 [compound 248] | 100
31 | CC(=NNc1cc(F)c(C(F)(F)F)c(F)c1)C(=O)NCc1ccc(Cl)nc1 [compound 249] | 100
32 | CC(=NNc1ccc(C(F)(F)F)c(Cl)c1)C(=O)NCc1ccc(Cl)nc1 [compound 250] | 100
33 | CC(=NNc1cc(Cl)c(C(F)(F)F)c(Cl)c1)C(=O)NCc1ccc(Cl)nc1 [compound 251] | 100
34 | CC(=NNc1ccc(Br)c(C(F)(F)F)c1)C(=O)NCc1ccc(Cl)cc1 [compound 255] | 100
35 | CC(=NNc1ccc(Br)c(C(F)(F)F)c1)C(=O)NCc1ccc(Cl)nc1 [compound 256] | 100
36 | CC(=NNc1ccc(I)cc1)C(=O)NCc1ccc(Cl)nc1 [compound 257] | 100
37 | CC(=NNc1ccc(C(F)(F)F)c(C(F)(F)F)c1)C(=O)NCc1ccc(Cl)nc1 [compound 258] | 100
38 | CC(=NNc1ccc(C(F)(F)F)cc1)C(=O)NCc1ccc(Cl)nc1 [compound 259] | 100
39 | CC(=NNc1ccc(C(F)(F)F)c(F)c1)C(=O)NCc1cnc(Cl)c(Cl)c1 [compound 262] | 100
40 | CC(=NNc1cc(F)c(C(F)(F)F)c(F)c1)C(=O)NCc1cnc(Cl)c(Cl)c1 [compound 263] | 100
41 | CC(=NNc1ccc(C(F)(F)F)cc1)C(=O)NCc1ccc(Br)c(Br)c1 [compound 265] | 100
42 | CC(=NNc1ccc(C(F)(F)F)cc1)C(=O)NCc1ccc(Br)c(C)c1 [compound 266] | 100
43 | CC(=NNc1ccc(C(F)(F)F)cc1)C(=O)NCc1ccc(C)c(C)c1 [compound 267] | 100
44 | CC(=NNc1ccc(C(F)(F)F)cc1)C(=O)NCc1ccc(C#N)cc1 [compound 270] | 100
45 | CC(=NNc1ccc(Cl)cc1)C(=O)NCc1ccc([N+](=O)[O-])cc1 [compound 272] | 100
46 | CC(=NNc1ccc(C(F)(F)F)cc1)C(=O)NCc1ccc(OCC(F)(F)F)nc1 [compound 275] | 100

Row | Structure (SMILES) | mortality (%)
47 | CC(=NNc1ccc(C(F)(F)F)cc1)C(=O)NNc1ccc(C(F)(F)F)cc1 [compound 284] | 100
48 | CC(=NN(C)c1ccc(C(F)(F)F)cc1)C(=O)NCc1cc(F)c(F)c(F)c1 [compound 287] | 100
49 | CC(=NN(C)c1ccc(C(F)(F)F)cc1)C(=O)NCc1ccc(Cl)c(F)c1 [compound 288] | 100
50 | CC(=NN(C)c1ccc(C(F)(F)F)c(F)c1)C(=O)NCc1ccc(Cl)nc1 [compound 289] | 100
51 | CC(=NN(C)c1cc(F)c(C(F)(F)F)c(F)c1)C(=O)NCc1ccc(Cl)nc1 [compound 290] | 100
52 | CC(=NN(C)c1ccc(C(F)(F)F)c(F)c1)C(=O)NCc1cnc(Cl)c(Cl)c1 [compound 292] | 100
53 | CC(=NN(c1ccc(C(F)(F)F)c(F)c1)C(C)C)C(=O)NCc1ccc(Cl)nc1 [compound 294] | 100
54 | CC(=NN(c1ccc(C(F)(F)F)c(F)c1)C(C)C)C(=O)NCc1cnc(Cl)c(Cl)c1 [compound 295] | 100
55 | CC(=NN(c1ccc(C(F)(F)F)cc1)C(C)C)C(=O)NCc1cnc(Cl)c(Cl)c1 [compound 296] | 100
56 | C/C(=N\N(C(=O)OC(C)(C)C)c1ccc(C(F)(F)F)cc1)C(=O)NCc1ccc(Cl)nc1 [compound 297] | 100
57 | CC/C(=N\N(C)c1ccc(C(F)(F)F)cc1)C(=O)NCc1ccc(Cl)nc1 [compound 298] | 100
58 | CC/C(=N\N(c1ccc(C(F)(F)F)cc1)C(C)C)C(=O)NCc1ccc(Cl)nc1 [compound 299] | 100
59 | N#CC(=NNc1ccc(C(F)(F)F)cc1)C(=O)NCc1ccc(Cl)c(Cl)c1 [compound 300] | 100
60 | Cc1ccc(CNC(=O)C(C#N)=NNc2ccc(C(F)(F)F)cc2)cc1 [compound 302] | 100
61 | N#CC(=NNc1ccc(C(F)(F)F)cc1)C(=O)NCc1ccc(C#N)cc1 [compound 303] | 100
62 | CN/C(=N/Nc1ccc(C(F)(F)F)cc1)C(=O)NCc1ccc(Cl)c(Cl)c1 [compound 304] | 100
63 | CN/C(=N/Nc1ccc(C(F)(F)F)cc1)C(=O)NCc1ccc(Cl)cc1 [compound 307] | 100
64 | CN/C(=N/N(C)c1ccc(C(F)(F)F)cc1)C(=O)NCc1ccc(Cl)nc1 [compound 309] | 100
65 | C/C(=N\Nc1ccc(Cl)c(Cl)c1)C(=O)NCc1cnc(Cl)s1 [compound 327] | 100
66 | CC(=NNc1ccc(Cl)cc1)C(=O)NCc1cnc(Cl)c(Cl)c1 [compound 344] | 100
67 | CC(=NNc1cccc(C(F)(F)F)c1)C(=O)NCc1cnc(Cl)c(Cl)c1 [compound 345] | 100
68 | CC(=NNc1ccc(C(F)(F)F)c(C(F)(F)F)c1)C(=O)NCc1cnc(Cl)c(Cl)c1 [compound 346] | 100
